# Test results taken from the supplement of paper PMC10849652.
# Sequences of proteins named here, by UniProt entry; tags and fusion partners are left off. A change or cut given only in a name is not applied to a line headed by its entry.
# UniProt Q5JRK9: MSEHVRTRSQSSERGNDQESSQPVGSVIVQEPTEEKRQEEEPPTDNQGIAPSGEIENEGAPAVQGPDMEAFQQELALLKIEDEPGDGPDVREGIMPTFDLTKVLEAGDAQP
# UniProt Q13416: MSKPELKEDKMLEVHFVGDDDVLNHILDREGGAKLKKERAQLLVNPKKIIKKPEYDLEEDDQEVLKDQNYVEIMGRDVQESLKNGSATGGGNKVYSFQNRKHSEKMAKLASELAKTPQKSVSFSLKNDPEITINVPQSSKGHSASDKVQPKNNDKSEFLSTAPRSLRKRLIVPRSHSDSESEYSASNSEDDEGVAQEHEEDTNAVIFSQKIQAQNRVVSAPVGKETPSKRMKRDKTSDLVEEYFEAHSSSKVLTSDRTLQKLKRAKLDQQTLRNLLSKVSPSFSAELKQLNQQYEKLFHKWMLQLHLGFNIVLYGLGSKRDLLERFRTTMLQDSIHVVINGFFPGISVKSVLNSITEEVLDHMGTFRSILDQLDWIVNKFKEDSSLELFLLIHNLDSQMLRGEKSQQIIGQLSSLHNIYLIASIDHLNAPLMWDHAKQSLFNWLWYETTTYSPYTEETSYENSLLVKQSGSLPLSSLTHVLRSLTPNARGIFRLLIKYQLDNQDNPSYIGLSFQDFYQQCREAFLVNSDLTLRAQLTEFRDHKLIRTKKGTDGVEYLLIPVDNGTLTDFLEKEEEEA
# UniProt Q9H8K7: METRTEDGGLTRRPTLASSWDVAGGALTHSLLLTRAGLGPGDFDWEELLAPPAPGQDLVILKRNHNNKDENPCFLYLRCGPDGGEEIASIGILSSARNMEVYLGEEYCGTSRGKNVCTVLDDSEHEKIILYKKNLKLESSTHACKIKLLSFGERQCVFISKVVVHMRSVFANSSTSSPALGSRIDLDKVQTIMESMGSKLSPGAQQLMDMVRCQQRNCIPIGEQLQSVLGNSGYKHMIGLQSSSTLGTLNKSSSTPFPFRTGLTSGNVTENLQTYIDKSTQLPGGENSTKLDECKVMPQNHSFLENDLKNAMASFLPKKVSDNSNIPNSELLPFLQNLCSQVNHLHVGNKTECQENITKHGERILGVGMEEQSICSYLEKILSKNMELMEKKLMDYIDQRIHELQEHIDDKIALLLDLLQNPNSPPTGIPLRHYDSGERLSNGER
# UniProt O60502: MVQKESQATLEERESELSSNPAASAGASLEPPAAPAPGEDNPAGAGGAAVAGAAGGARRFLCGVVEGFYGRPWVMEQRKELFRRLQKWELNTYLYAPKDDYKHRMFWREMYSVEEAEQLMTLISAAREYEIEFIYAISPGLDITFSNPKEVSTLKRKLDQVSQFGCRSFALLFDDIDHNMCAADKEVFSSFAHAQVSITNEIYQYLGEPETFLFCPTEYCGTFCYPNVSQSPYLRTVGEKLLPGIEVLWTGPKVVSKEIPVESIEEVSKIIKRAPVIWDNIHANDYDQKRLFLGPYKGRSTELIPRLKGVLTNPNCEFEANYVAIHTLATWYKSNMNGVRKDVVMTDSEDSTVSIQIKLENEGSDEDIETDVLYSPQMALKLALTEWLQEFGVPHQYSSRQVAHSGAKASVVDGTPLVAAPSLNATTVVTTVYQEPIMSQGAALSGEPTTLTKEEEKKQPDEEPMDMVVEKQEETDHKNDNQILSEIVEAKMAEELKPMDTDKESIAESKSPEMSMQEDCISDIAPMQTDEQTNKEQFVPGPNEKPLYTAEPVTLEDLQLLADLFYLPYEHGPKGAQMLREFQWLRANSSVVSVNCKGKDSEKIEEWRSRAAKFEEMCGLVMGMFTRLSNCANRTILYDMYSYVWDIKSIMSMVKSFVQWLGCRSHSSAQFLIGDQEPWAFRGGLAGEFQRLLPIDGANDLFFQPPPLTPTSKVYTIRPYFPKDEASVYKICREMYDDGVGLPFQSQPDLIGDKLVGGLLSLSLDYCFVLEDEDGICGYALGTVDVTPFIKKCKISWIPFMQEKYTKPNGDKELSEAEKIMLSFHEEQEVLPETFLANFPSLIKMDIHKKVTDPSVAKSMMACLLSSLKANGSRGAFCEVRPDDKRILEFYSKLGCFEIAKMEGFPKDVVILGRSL
# UniProt Q9BVL2: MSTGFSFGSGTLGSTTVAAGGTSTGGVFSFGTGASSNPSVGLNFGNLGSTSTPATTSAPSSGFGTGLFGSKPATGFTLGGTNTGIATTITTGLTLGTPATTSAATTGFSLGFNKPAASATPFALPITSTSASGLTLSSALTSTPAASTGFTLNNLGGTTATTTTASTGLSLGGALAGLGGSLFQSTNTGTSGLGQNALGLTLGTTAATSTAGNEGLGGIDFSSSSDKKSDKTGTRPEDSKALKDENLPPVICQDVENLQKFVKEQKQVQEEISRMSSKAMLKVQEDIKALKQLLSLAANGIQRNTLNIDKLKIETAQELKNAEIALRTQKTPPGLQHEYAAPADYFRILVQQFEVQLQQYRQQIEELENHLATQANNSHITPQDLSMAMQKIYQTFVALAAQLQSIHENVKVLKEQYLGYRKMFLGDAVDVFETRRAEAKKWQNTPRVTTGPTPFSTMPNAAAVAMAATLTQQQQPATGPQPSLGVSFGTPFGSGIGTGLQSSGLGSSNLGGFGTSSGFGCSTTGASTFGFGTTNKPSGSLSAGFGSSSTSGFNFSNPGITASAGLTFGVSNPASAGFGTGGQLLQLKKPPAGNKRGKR
# UniProt Q9UKX7: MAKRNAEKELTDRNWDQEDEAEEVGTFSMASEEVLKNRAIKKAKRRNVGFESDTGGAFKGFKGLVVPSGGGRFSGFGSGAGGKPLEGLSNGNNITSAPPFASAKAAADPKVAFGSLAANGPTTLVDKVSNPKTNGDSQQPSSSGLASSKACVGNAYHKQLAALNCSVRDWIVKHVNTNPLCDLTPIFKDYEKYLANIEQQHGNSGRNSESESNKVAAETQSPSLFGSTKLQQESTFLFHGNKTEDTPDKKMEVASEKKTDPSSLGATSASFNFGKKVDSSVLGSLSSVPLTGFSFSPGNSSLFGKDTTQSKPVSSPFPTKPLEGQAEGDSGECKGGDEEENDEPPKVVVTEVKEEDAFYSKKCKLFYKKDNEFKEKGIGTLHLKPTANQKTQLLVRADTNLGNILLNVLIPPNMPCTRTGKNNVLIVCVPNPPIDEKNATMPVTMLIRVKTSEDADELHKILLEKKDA
# UniProt Q9NRP0: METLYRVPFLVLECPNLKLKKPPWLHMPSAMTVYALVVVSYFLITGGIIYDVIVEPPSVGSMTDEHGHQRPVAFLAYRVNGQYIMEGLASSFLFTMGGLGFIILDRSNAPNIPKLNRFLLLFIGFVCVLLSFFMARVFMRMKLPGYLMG
# UniProt Q9NWU1, whole entry, looked up: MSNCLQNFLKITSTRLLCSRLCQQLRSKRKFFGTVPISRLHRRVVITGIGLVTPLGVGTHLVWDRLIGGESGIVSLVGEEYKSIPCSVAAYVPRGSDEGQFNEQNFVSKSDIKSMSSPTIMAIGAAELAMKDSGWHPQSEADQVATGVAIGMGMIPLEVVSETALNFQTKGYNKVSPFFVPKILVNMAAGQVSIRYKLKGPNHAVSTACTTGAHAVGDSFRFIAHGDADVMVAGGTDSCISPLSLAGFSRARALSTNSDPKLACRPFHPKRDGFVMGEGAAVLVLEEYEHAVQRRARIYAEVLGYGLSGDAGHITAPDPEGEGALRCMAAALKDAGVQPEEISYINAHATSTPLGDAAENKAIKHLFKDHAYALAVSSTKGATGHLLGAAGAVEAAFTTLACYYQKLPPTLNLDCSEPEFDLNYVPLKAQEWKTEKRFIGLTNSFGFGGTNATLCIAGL
# UniProt Q9NP74: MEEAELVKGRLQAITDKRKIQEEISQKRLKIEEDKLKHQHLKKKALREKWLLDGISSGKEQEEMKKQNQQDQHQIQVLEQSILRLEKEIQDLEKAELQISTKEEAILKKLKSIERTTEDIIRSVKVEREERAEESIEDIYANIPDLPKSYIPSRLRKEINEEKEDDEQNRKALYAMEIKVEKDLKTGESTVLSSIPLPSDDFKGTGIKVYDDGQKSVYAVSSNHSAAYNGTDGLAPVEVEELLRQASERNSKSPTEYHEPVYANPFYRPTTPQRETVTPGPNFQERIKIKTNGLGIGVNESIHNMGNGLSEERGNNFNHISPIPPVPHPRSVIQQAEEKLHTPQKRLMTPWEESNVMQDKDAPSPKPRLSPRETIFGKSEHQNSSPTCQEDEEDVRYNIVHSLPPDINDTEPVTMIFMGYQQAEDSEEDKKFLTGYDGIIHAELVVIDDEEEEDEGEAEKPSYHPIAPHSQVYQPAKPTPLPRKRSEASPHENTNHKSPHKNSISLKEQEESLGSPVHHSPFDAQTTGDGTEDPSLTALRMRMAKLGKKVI
# UniProt Q96RD7, whole entry, looked up: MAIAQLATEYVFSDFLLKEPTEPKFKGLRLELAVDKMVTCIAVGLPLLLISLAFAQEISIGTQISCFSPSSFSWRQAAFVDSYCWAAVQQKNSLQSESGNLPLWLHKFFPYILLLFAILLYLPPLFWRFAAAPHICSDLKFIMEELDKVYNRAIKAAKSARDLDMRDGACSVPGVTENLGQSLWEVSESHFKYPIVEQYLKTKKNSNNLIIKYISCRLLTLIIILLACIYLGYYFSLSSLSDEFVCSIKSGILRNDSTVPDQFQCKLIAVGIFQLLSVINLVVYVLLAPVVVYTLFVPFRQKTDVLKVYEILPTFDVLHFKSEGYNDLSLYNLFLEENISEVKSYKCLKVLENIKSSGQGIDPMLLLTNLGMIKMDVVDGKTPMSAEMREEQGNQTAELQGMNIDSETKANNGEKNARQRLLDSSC
# UniProt Q5SRE5: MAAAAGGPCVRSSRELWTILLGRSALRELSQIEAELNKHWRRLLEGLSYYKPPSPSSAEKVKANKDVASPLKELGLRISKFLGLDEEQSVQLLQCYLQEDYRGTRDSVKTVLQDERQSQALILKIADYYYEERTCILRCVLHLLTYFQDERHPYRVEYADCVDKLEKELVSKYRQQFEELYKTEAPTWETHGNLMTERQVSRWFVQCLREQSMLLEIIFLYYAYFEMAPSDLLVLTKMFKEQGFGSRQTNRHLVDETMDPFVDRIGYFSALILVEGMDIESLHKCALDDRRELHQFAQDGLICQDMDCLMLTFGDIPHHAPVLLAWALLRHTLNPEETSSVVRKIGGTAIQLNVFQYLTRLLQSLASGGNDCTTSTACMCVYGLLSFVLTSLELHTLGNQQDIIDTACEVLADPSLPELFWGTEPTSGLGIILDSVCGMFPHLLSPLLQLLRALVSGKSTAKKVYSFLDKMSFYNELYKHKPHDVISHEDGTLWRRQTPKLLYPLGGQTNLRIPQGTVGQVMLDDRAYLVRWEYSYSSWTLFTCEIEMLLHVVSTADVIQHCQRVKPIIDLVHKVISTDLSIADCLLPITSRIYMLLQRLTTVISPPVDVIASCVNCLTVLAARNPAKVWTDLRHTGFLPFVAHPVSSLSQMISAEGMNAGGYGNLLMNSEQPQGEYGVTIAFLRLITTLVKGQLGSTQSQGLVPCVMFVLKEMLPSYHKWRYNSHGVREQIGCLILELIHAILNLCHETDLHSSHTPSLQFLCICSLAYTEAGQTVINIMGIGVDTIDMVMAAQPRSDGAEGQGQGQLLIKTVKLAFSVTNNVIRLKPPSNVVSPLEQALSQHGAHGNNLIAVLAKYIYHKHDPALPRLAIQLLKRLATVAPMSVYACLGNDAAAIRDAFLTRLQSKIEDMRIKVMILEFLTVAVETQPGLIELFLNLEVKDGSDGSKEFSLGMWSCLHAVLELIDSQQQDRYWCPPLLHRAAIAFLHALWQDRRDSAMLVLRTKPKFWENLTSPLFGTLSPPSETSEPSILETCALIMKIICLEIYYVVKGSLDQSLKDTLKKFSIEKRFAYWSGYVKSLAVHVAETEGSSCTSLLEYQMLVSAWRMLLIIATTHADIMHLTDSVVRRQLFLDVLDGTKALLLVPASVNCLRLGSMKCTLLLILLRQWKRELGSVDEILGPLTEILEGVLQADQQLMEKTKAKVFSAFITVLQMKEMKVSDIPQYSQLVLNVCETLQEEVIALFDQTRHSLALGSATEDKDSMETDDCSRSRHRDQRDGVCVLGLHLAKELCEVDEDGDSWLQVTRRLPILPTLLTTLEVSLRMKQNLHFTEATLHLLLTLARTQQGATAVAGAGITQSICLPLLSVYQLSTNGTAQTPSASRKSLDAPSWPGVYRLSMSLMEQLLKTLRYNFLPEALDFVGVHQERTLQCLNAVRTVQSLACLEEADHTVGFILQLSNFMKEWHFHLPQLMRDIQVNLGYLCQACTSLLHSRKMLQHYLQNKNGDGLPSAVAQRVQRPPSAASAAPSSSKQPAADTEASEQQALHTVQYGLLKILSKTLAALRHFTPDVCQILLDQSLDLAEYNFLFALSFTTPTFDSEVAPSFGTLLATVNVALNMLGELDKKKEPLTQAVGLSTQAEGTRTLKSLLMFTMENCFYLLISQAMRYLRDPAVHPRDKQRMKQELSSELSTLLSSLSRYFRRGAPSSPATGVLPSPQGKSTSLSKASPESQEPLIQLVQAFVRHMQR
# This is one part of the list.
# How the values were obtained:
# Test in all cases: log2 fold change, soluble protein after heating vs DMSO (PISA); higher = thermal stabilisation; K562 lysate, 10 uM; active = over 0.2 and 3.5 SD of the protein, either way, in both replicates (recomputed)
# [1] = compound: NCC(=O)Nc1ccc(-n2nc(C(F)(F)F)cc2-c2ccc3c(ccc4ccccc43)c2)cc1
# Outline: (§1)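 Following dounce homogenisation of K562 pellets in PBS pH 7.4 with 1 mM MgCl2, crude extract at 1 mg/mL protein was incubated for 30 min with 10 μM compound. Aliquots were then heated for 3 min over 48°C-58°C and pooled, NP-40 was added to 0.5% at 4°C, and soluble protein was recovered as the supernatant at 21,000xg for 90 min. Channel-sum-equalised TMTpro 16plex LC-MS/MS quantified this protein. Each value, from duplicates, is a log-two fold change in thermal stability relative to solvent controls.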
# vorinostat = compound: O=C(CCCCCCC(=O)Nc1ccccc1)NO [vorinostat]
# Outline: as §1
# silmitasertib = compound: O=C(O)c1ccc2c(c1)nc(Nc1cccc(Cl)c1)c1ccncc12 [silmitasertib]
# Outline: as §1
# [2] = compound: O=C1NC(=O)C(c2cnc3ccccn23)=C1c1cn2c3c(cc(F)cc13)CN(C(=O)N1CCCCC1)CC2
# Outline: as §1
# entospletinib = compound: c1cn2cc(-c3ccc4cn[nH]c4c3)nc(Nc3ccc(N4CCOCC4)cc3)c2n1 [entospletinib]
# Outline: as §1
Target,log2 fold change [1],log2 fold change (vorinostat),log2 fold change (silmitasertib),log2 fold change [2],log2 fold change (entospletinib)
PAGE2B (UniProt Q5JRK9),inactive: 0.057,active: 0.474,inactive: -0.001,inactive: 0.02,inactive: 0.017
OARD1 (UniProt Q9Y530),inactive: -0.021,active: -0.456,inactive: 0.051,inactive: 0.02,inactive: 0.024
NUP88 (UniProt Q99567),inactive: 0.002,inactive: -0.084,inactive: -0.052,inactive: -0.007,inactive: -0.013
ORC2 (UniProt Q13416),inactive: 0,active: -0.285,inactive: 0.007,inactive: 0.049,inactive: 0.021
OGDH (UniProt Q02218),inactive: 0.027,inactive: 0.037,inactive: -0.004,inactive: 0.045,inactive: 0.019
PAAT (UniProt Q9H8K7),inactive: -0.016,inactive: -0.228,inactive: 0,inactive: 0.063,inactive: -0.042
OSGEP (UniProt Q9NPF4),inactive: -0.001,inactive: -0.038,inactive: -0.109,inactive: 0.016,inactive: 0.002
PABPC4 isoform 3 (UniProt Q13310),inactive: 0.009,inactive: 0.002,inactive: -0.012,inactive: 0.011,inactive: -0.002
OBI1 (UniProt Q5W0B1),inactive: 0.132,inactive: -0.206,inactive: 0.073,inactive: 0.052,inactive: 0.002
OSBP2 (UniProt Q969R2),inactive: 0.025,inactive: 0.055,inactive: -0.147,inactive: 0.023,inactive: -0.102
ODR4 (UniProt Q5SWX8),inactive: -0.035,inactive: 0.196,inactive: 0.017,inactive: -0.031,inactive: -0.031
PARL (UniProt Q9H300),inactive: -0.065,inactive: 0.024,inactive: -0.012,inactive: -0.032,inactive: 0.005
P4HA1 (UniProt P13674),inactive: 0.002,inactive: 0.032,inactive: -0.034,inactive: 0.013,inactive: -0.017
PAFAH1B3 (UniProt Q15102),inactive: -0.013,inactive: -0.179,inactive: 0.041,inactive: 0.003,inactive: -0.052
OGFOD3 (UniProt Q6PK18),inactive: 0.01,inactive: -0.083,inactive: 0.032,inactive: -0.045,inactive: -0.044
ODF2 (UniProt Q5BJF6),inactive: 0.002,inactive: -0.199,inactive: -0.117,inactive: 0.011,inactive: -0.052
PAK1IP1 (UniProt Q9NWT1),inactive: -0.008,inactive: 0.09,inactive: 0.006,inactive: -0.083,inactive: 0.046
PAFAH2 (UniProt Q99487),inactive: 0.066,inactive: 0.023,inactive: 0.005,inactive: -0.037,inactive: -0.006
NUP42 (UniProt O15504),inactive: 0.133,inactive: 0.087,inactive: -0.209,inactive: 0.031,inactive: -0.057
OGA (UniProt O60502),inactive: 0.003,inactive: -0.124,inactive: -0.006,inactive: 0.013,inactive: 0.009
OBSL1 (UniProt O75147),inactive: 0.021,inactive: -0.186,inactive: 0.022,inactive: -0.031,inactive: 0.008
NUP214 (UniProt P35658),inactive: 0.029,inactive: -0.139,inactive: -0.006,inactive: -0.007,inactive: -0.018
NUP58 (UniProt Q9BVL2),inactive: -0.057,inactive: 0.013,inactive: -0.008,inactive: -0.036,inactive: -0.051
NUP50 (UniProt Q9UKX7),inactive: 0.006,inactive: 0.006,inactive: 0.003,inactive: -0.001,inactive: 0.006
PARD6B (UniProt Q9BYG5),inactive: 0.01,inactive: -0.05,inactive: 0.022,inactive: -0.026,inactive: -0.028
OVCA2 (UniProt Q8WZ82),inactive: 0.129,inactive: -0.035,inactive: 0.021,inactive: -0.003,inactive: 0.048
OSBPL3 isoform 2 (UniProt Q9H4L5),inactive: -0.087,active: -0.36,active: 0.402,inactive: 0.062,inactive: 0.052

# Random excerpt: 2 entries already listed.
Target,log2 fold change [1],log2 fold change (vorinostat),log2 fold change (silmitasertib),log2 fold change [2],log2 fold change (entospletinib)
OGFOD3 (UniProt Q6PK18),inactive: 0.01,inactive: -0.083,inactive: 0.032,inactive: -0.045,inactive: -0.044
OSGEP (UniProt Q9NPF4),inactive: -0.001,inactive: -0.038,inactive: -0.109,inactive: 0.016,inactive: 0.002

# More results follow:

Target,log2 fold change [1],log2 fold change (vorinostat),log2 fold change (silmitasertib),log2 fold change [2],log2 fold change (entospletinib)
OSTC (UniProt Q9NRP0),inactive: -0.315,inactive: 0.121,inactive: -0.013,inactive: 0.061,inactive: -0.083
OTUD6B (UniProt Q8N6M0),inactive: 0.02,inactive: -0.037,inactive: -0.022,inactive: -0.023,inactive: 0.03
OS9 (UniProt Q13438),inactive: 0.03,inactive: 0.092,inactive: -0.001,inactive: 0.013,inactive: -0.037
OXCT1 (UniProt P55809),inactive: 0.001,inactive: 0.103,inactive: -0.035,inactive: 0.022,inactive: -0.009
OTUD7B (UniProt Q6GQQ9),inactive: 0.044,active: 0.331,inactive: -0.038,inactive: 0.194,inactive: -0.04
OXSM (UniProt Q9NWU1),inactive: -0.019,inactive: 0.113,inactive: -0.04,inactive: 0.038,inactive: -0.028
PALMD (UniProt Q9NP74),inactive: 0.018,inactive: 0.193,inactive: 0.003,inactive: -0.009,inactive: -0.302
NUP85 (UniProt Q9BW27),inactive: -0.03,inactive: -0.075,inactive: 0.019,inactive: -0.006,inactive: 0.014
PACSIN3 (UniProt Q9UKS6),inactive: -0.019,inactive: -0.134,inactive: 0.04,inactive: -0.019,inactive: -0.036
NXF1 (UniProt Q9UBU9),inactive: 0.009,inactive: -0.09,inactive: -0.048,inactive: 0.026,inactive: 0.036
OSTF1 (UniProt Q92882),inactive: -0.01,inactive: -0.013,inactive: 0.006,inactive: -0.01,inactive: -0.003
PACC1 (UniProt Q9H813),inactive: 0.034,inactive: 0.157,inactive: -0.08,inactive: 0.023,inactive: -0.093
OAT (UniProt P04181),inactive: 0.053,inactive: 0.168,inactive: -0.006,inactive: 0.042,inactive: 0.029
OGFR (UniProt Q9NZT2),inactive: -0.036,active: -0.285,inactive: 0.02,inactive: -0.018,inactive: -0.061
PANK1 (UniProt Q8TE04),inactive: 0.01,inactive: -0.084,inactive: 0.004,inactive: -0.039,inactive: 0.08
NUP54 (UniProt Q7Z3B4),inactive: 0.023,inactive: 0.016,inactive: -0.009,inactive: -0.002,inactive: 0.007
OPTN (UniProt Q96CV9),inactive: -0.027,inactive: 0.069,inactive: 0.003,inactive: -0.017,inactive: 0
OTUD4 (UniProt Q01804),inactive: 0.073,inactive: 0.098,inactive: -0.026,inactive: 0.008,inactive: -0.083
ORC3 isoform 2 (UniProt Q9UBD5),inactive: -0.012,active: -0.409,inactive: 0.023,inactive: 0.052,inactive: 0.013
OTC (UniProt P00480),inactive: 0.097,inactive: 0.087,inactive: -0.029,inactive: -0.157,inactive: -0.028
ORC4 (UniProt O43929),inactive: 0.073,inactive: -0.178,inactive: 0.059,inactive: 0.01,inactive: -0.013
PAK4 (UniProt O96013),inactive: -0.003,inactive: -0.458,inactive: -0.038,inactive: 0.028,inactive: 0.05
NUP43 (UniProt Q8NFH3),inactive: 0.06,inactive: 0.093,inactive: -0.073,inactive: -0.008,inactive: -0.003
PANX1 (UniProt Q96RD7),inactive: -0.027,inactive: 0.068,inactive: -0.025,inactive: -0.075,inactive: 0.017
NUP188 (UniProt Q5SRE5),inactive: -0.002,active: -0.36,inactive: 0.073,inactive: -0.009,inactive: -0.003
OXR1 (UniProt Q8N573),inactive: -0.041,inactive: 0.024,inactive: -0.034,inactive: -0.02,inactive: -0.029
